Laboratory results published in paper PMC10646219.
Results are given in words; binding and its absence hold for the method and conditions named. Binding seen in cells or lysates may run through a third protein. Some binding calls cover weakened binding; strength is not graded here.

The chains behind the UniProt entries cited, without tags or fusion partners.
UniProt Q08857: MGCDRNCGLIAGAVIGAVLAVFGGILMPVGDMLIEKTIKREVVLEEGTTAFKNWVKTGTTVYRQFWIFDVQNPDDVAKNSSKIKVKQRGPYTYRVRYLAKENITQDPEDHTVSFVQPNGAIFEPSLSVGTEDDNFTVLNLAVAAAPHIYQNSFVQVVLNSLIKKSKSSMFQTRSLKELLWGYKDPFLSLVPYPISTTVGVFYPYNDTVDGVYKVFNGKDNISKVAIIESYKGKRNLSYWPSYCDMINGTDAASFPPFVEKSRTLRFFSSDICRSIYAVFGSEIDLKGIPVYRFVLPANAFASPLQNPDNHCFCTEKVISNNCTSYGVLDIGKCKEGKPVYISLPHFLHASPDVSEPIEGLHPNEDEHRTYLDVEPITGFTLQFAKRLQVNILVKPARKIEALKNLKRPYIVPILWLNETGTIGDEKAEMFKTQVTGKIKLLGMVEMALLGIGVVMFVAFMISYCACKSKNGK

Target: CD36 (mouse (endogenous in DC2.4)) (UniProt Q08857)
Assay: co-IP; endogenous proteins; DC2.4 cells co-cultured 24 h with Scramble- or Arf1-ablated CT26 cells, lysed in NP-40 lysis buffer; supernatants incubated with anti-CD36, anti-TLR2, anti-TLR6 or anti-Rab7 antibody overnight at 4 °C, agarose beads 2 h, washed three times with NP-40 buffer, immunoblotting

binding: binds
B1: TLR6 (receptor, UniProt Q9EPW9 28-795)
chain: FSNELESMVDYSNRNLTHVPKDLPPRTKALSLSQNSISELRMPDISFLSELRVLRLSHNRIRSLDFHVFLFNQDLEYLDVSHNRLQNISCCPMASLRHLDLSFNDFDVLPVCKEFGNLTKLTFLGLSAAKFRQLDLLPVAHLHLSCILLDLVSYHIKGGETESLQIPNTTVLHLVFHPNSLFSVQVNMSVNALGHLQLSNIKLNDENCQRLMTFLSELTRGPTLLNVTLQHIETTWKCSVKLFQFFWPRPVEYLNIYNLTITERIDREEFTYSETALKSLMIEHVKNQVFLFSKEALYSVFAEMNIKMLSISDTPFIHMVCPPSPSSFTFLNFTQNVFTDSVFQGCSTLKRLQTLILQRNGLKNFFKVALMTKNMSSLETLDVSLNSLNSHAYDRTCAWAESILVLNLSSNMLTGSVFRCLPPKVKVLDLHNNRIMSIPKDVTHLQALQELNVASNSLTDLPGCGAFSSLSVLVIDHNSVSHPSEDFFQSCQNIRSLTAGNNPFQCTCELRDFVKNIGWVAREVVEGWPDSYRCDYPESSKGTALRDFHMSPLSCDTVLLTVTIGATMLVLAVTGAFLCLYFDLPWYVRMLCQWTQTRHRARHIPLEELQRNLQFHAFVSYSEHDSAWVKNELLPNLEKDDIRVCLHERNFVPGKSIVENIINFIEKSYKAIFVLSPHFIQSEWCHYELYFAHHNLFHEGSDNLILILLEPILQNNIPSRYHKLRALMAQRTYLEWPTEKGKRGLFWANLRASFIMKLALVNEDDVKT
